# Some of the results follow. The data scatter; read single values as rough.
# Amino acid sequences for entries named in this document (tags omitted). A change or cut given only in a name is not applied to a line headed by its entry. Residues count along the entry.
# UniProt Q96RU3: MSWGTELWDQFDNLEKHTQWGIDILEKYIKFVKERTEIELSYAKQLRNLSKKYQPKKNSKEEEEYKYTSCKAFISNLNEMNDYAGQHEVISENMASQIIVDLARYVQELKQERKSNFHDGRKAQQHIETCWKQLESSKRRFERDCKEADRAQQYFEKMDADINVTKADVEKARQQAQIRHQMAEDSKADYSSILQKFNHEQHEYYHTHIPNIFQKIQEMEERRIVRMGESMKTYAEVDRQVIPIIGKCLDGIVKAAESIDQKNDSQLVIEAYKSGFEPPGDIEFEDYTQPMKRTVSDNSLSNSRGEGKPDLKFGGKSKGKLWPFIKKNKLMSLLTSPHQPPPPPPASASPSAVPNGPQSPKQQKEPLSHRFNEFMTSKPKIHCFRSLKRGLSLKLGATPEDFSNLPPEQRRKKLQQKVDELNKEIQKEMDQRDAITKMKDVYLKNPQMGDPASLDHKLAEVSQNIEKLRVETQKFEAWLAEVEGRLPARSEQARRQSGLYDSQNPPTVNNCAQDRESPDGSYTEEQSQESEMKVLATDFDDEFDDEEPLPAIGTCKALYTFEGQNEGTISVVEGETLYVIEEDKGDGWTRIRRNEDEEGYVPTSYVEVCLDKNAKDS
# UniProt O14772, 437-457: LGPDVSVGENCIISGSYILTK
# UniProt Q14315, whole entry, looked up: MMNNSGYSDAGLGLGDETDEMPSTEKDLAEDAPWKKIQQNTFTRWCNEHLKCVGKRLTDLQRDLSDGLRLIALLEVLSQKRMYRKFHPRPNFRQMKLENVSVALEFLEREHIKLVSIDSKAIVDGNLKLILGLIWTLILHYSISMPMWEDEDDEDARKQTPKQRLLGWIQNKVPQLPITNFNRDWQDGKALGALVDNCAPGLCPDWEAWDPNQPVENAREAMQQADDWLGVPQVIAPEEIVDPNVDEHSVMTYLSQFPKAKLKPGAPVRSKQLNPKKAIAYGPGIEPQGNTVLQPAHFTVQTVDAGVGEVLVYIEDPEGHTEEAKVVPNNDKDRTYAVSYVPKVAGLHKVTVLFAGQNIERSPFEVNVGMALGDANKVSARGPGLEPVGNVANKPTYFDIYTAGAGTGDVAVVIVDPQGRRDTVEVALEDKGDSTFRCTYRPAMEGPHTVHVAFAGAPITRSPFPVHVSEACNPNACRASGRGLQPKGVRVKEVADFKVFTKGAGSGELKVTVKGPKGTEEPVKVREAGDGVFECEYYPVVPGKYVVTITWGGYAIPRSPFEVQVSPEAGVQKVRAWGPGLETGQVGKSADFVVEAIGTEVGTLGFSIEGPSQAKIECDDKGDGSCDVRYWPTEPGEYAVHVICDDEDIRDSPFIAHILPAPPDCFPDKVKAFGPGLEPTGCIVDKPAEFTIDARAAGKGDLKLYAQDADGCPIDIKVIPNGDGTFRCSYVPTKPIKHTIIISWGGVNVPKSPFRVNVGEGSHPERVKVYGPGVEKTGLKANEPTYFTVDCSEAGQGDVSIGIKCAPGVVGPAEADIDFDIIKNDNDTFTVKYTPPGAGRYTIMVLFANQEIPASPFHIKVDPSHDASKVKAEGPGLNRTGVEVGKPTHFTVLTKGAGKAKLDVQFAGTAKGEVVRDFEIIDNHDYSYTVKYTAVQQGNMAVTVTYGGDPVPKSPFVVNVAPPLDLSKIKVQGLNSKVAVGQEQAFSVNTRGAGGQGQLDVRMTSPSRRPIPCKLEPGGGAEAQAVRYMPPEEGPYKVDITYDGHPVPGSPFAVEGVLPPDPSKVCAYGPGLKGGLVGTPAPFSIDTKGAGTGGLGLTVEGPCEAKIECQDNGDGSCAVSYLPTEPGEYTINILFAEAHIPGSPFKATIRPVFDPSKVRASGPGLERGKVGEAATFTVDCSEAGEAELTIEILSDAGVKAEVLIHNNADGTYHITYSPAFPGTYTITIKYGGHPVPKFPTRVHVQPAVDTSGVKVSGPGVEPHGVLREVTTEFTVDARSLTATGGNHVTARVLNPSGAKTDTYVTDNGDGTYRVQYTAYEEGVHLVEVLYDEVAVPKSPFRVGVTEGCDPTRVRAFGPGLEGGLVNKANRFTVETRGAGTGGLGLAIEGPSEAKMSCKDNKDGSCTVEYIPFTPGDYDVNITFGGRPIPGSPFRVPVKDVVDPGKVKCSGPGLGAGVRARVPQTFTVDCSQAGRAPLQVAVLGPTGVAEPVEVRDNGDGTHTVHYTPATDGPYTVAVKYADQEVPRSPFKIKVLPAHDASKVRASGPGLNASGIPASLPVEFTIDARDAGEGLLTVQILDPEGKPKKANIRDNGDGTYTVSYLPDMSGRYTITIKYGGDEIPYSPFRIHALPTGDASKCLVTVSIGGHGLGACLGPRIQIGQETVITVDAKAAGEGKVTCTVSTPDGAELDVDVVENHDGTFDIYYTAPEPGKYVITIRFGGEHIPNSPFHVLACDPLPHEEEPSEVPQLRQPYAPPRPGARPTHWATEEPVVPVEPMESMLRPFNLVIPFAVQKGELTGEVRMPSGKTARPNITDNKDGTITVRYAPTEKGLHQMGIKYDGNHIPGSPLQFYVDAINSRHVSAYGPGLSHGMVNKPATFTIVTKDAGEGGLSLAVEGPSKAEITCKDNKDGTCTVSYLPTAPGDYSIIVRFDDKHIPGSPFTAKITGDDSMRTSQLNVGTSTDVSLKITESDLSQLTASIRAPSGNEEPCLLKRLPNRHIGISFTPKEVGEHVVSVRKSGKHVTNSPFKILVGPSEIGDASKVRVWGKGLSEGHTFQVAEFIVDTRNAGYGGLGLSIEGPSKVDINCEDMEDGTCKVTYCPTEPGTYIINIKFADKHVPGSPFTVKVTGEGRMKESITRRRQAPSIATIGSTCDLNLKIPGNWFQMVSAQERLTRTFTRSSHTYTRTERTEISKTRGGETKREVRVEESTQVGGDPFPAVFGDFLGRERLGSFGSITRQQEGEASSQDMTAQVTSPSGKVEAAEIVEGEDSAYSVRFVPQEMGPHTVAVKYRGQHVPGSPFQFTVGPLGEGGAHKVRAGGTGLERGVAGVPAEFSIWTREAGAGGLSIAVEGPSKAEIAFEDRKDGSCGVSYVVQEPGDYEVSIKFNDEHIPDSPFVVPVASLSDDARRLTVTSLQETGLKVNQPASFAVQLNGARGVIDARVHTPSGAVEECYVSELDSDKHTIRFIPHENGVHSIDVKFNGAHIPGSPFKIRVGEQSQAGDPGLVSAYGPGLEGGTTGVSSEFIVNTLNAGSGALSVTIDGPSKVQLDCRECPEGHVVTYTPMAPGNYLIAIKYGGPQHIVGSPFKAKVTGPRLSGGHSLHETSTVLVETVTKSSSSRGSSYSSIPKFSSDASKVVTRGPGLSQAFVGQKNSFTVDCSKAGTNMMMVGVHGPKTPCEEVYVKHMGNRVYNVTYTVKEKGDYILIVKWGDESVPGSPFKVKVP
# UniProt Q9UET6: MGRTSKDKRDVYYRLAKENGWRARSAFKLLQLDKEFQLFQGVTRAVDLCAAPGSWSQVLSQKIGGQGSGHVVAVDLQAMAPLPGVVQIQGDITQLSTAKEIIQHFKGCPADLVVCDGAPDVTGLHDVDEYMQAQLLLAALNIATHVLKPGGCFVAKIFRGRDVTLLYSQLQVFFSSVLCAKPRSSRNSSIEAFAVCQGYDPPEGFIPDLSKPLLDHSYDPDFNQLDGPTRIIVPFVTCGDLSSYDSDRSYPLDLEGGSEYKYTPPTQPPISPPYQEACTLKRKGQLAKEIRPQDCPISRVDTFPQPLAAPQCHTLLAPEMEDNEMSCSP
# How the values were obtained:
# [1] = compound: ClCC(=O)N[C@@H]1CCCc2ccccc12; experiment: log2 mean competition ratio of IA-DTB cysteine labelling (DMSO/compound) (log2 ratio); higher = stronger cysteine engagement by compound; conditions: treatment time: 4 h, cell line lysate: HEK293T
# Method: (§1)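 IA-DTB competitive cysteine chemoproteomics in HEK293T RIPA lysate. Lysates were treated with compound 29 or 30 at 50 or 200 µM for 4 h, then IA-DTB (500 µM, 1 h), trypsin-digested, NeutrAvidin-enriched and analysed by diaPASEF. Competition ratio = intensity DMSO / intensity compound (n=4 treated, n=64 DMSO); binding: mean log2 CR ≥ 1 and p ≤ 0.05 plus QC filters. Target is the cysteine site.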
# [2] = compound: ClCC(=O)N[C@H]1CCCc2ccccc12; experiment: as above; conditions: treatment time: 4 h, cell line lysate: HEK293T
# Method: as §1
Target,log2 mean competition ratio ([1]; 50 µM),log2 mean competition ratio ([1]; 200 µM),log2 mean competition ratio ([2]; 50 µM),log2 mean competition ratio ([2]; 200 µM)
FNBP1 C609 (UniProt Q96RU3),-0.127,-0.0205,0.192,0.0324
FHIP2A C507,-0.133,0.338,-0.281,0.142
FPGT C447 (UniProt O14772),0.315,0.0821,0.241,-0.038
FNTA C341,0.00746,-0.0281,-0.39,0.332
G6PD C13,0.0173,-0.162,0.2,-0.132
FLNC C2660 (UniProt Q14315),-0.182,0.04,-0.0439,0.151
FTSJ1 C49 (UniProt Q9UET6),0.225,0.133,0.0665,0.205
GART C646,0.0583,-0.0304,0.197,-0.0425

# Source: the supplement of paper PMC11732987, “Enantioselective OTUD7B fragment discovery through chemoproteomics screening and high-throughput optimisation” (Communications Chemistry, 2025)
